Two compounds from PubChem BioAssay AID1318 (The Scripps Research Institute Molecular Screening Center, 2008) can be followed below.

In all, about 1,200 compounds went through this assay and about 160 (13%) were called active.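 Rule for the calls: active = activation above the solvent-only control well mean plus 3 SD, set per screening run (cut at about 120% in these data); inactive = the rest.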 This is a selection; strong and weak results do not stand in their true shares.

The test can be described thus: STAT1 reporter activators, IFN-gamma induced, counter-screen for STAT3 activator project, cell-based, NIH 3T3, luciferase luminescence (AID 1318).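 Note: 100% = IFN-gamma with DMSO median signal so 100% means no change.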 To be noted: NIH 3T3 STAT1-luciferase reporter, at 5.7 µM, hits give high values. For orientation: The purpose of a counterscreen is to sort out artefacts and off-target activity.
As to `CCC/C(=N\O)c1c[nH]c2ccccc12`, the activation (% of control) was inactive: 99.9%.
As for `COc1cc(-n2c(=S)[nH]c3ccc(C)cc3c2=O)c(Cl)cc1Cl`, the activation (% of control) was inactive: 105%.
